According to publication PMC5876183:
Results are given in words; binding and its absence hold for the method and conditions named. In cells and extracts the contact can be indirect. Some results given as binding are weak or reduced against the parent protein; the word gives no strength.

Sequences of proteins named here, by UniProt entry; tags and fusion partners are left off.
UniProt Q9NS91: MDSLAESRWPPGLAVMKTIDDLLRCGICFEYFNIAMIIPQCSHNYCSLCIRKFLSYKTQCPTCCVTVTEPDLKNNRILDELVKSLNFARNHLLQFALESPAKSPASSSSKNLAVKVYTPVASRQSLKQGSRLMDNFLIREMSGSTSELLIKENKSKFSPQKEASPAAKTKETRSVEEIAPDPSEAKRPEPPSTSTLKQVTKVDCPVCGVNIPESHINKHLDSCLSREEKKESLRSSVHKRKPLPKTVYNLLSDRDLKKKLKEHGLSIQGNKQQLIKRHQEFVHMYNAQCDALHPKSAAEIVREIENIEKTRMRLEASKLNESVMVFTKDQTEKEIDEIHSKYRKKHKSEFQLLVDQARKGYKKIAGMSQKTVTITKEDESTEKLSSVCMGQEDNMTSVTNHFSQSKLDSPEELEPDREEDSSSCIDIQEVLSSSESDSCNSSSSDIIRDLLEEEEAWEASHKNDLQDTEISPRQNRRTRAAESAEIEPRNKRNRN
UniProt P12004: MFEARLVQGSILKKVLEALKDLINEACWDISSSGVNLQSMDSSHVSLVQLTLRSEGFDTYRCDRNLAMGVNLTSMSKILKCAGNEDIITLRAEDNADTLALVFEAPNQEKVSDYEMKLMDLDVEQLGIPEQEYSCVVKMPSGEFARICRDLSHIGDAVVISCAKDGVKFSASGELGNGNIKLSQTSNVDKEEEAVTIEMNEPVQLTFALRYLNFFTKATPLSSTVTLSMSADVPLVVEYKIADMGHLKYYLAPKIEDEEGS
UniProt P61081: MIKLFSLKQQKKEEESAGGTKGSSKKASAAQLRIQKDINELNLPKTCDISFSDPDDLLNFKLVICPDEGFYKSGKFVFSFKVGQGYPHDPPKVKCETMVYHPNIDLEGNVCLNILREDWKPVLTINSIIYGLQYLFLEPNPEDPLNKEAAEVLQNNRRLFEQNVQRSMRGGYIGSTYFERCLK
UniProt Q96LD8: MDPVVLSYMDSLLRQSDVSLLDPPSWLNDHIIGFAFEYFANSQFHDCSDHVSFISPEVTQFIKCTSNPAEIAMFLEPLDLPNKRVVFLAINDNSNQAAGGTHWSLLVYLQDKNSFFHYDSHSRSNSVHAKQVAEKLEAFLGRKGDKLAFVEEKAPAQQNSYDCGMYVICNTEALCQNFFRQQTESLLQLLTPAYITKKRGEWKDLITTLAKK

Tests used:
[1] = target: 3Flag-RAD18 (UniProt Q9NS91); assay: co-IP; exogenous (transfected) RAD18 and UBC12, Fig. S1C; details not shown
[2] = target: proliferating cell nuclear antigen (PCNA) (human (endogenous in HEK293T)) (UniProt P12004); assay: co-IP; endogenous proteins; HEK293T cells treated with H2O2 for the indicated time, lysed in Triton-X100 lysis buffer, sonicated 15 times; immunoprecipitation with antibody against PCNA
[3] = target: RAD18 (human (endogenous in HEK293T)) (UniProt Q9NS91); assay: co-IP; endogenous proteins; HEK293T cells lysed in NP-40 lysis buffer, sonicated 15 times; immunoprecipitation with antibody against RAD18

Myc-UBC12 (from UniProt P61081 1-183)
binding [1]: binds

NEDP1 (from UniProt Q96LD8 1-212) (enzyme)
binding [2]: binds

UBC12 (from UniProt P61081 1-183)
binding [3]: binds
